Measured values: US8207172B2 (Bayer Intellectual Property GmbH, priority 2004, dated 2012)
Some of these results come from one statement about several compounds together. For at least one compound, name, drawing or mass did not settle the structure.

Columns and labels:
[1] = test system: A431 cells (human epidermoid carcinoma); test: In vitro tumor cell proliferation assay (Cell Titer-Glo luminescent cell viability), A431; type: cell-based; settings: 72 hours of drug exposure, ATP luminescence readout, read-out: IC50, anti-proliferative activity (inhibition of cell proliferation)
From the text: (§1) In vitro Tumor Cell Proliferation Assay
(§2) The tumor cell proliferation assay used to test the compounds of the present invention involves a readout called Cell Titer-Glow® Luminescent Cell Viability Assay developed by Promega® (Cunningham, B A “A Growing Issue: Cell Proliferation Assays, Modern kits ease quantification of cell growth” The Scientist 2001, 15(13), 26, and Crouch, S P et al., “The use of ATP bioluminescence as a measure of cell proliferation and cytotoxicity” Journal of Immunological Methods 1993, 160, 81-88), that measures inhibition of cell proliferation. Generation of a luminescent signal corresponds to the amount of ATP present, which is directly proportional to the number of metabolically active (proliferating) cells.
(§3) A431cells (human epidermoid carcinoma, ATCC […]) and BT474 (human breast carcinoma, ATCC […]) were plated at a density of 2.5×10^3 cells/well in 96 well black-clear bottom tissue culture plates in RPMI media with 10% Fetal Bovine Serum and incubated at 37° C. […] The plates were mixed for 2 min on orbital shaker to ensure cell lysis and incubated for 10 min at room temperature to stabilize luminescence signal. The samples were read on VICTOR 2 using Luminescence protocol, and analyzed with Analyze5 software to generate IC50 values.

[2] = test system: BT474 (human breast carcinoma); test: In vitro tumor cell proliferation assay (Cell Titer-Glo luminescent cell viability), BT474; type: cell-based; settings: BT474 cells, 72 hours of drug exposure, ATP luminescence readout; read-out: IC50, anti-proliferative activity (inhibition of cell proliferation)
From the text: as §1, §2, §3

`CS(=O)(=O)CCNCCn1cc2c(n1)CCc1c-2sc2ncnc(Nc3ccc4c(cnn4Cc4cccc(F)c4)c3)c12` [Example 287] was tested, and the IC50 [1] was ≤ 50 µM and the IC50 [2] was ≤ 1000 nM.
